# Measured values as given in paper PMC11385326.
# Chains of the proteins cited; added tags and fusions are not shown. Residues count along the entry.
# UniProt Q96CW1: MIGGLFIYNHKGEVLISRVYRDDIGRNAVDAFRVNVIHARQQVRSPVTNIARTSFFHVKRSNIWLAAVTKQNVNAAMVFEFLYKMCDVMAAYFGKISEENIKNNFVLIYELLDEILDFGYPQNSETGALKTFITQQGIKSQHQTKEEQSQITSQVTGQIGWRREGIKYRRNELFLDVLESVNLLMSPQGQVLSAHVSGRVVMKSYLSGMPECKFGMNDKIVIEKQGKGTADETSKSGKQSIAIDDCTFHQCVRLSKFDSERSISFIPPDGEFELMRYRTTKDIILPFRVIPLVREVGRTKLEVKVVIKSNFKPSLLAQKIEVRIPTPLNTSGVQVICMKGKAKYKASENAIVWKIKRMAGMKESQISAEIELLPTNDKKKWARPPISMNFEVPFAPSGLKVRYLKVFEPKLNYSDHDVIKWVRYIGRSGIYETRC
# UniProt P56199, residues 29-1179: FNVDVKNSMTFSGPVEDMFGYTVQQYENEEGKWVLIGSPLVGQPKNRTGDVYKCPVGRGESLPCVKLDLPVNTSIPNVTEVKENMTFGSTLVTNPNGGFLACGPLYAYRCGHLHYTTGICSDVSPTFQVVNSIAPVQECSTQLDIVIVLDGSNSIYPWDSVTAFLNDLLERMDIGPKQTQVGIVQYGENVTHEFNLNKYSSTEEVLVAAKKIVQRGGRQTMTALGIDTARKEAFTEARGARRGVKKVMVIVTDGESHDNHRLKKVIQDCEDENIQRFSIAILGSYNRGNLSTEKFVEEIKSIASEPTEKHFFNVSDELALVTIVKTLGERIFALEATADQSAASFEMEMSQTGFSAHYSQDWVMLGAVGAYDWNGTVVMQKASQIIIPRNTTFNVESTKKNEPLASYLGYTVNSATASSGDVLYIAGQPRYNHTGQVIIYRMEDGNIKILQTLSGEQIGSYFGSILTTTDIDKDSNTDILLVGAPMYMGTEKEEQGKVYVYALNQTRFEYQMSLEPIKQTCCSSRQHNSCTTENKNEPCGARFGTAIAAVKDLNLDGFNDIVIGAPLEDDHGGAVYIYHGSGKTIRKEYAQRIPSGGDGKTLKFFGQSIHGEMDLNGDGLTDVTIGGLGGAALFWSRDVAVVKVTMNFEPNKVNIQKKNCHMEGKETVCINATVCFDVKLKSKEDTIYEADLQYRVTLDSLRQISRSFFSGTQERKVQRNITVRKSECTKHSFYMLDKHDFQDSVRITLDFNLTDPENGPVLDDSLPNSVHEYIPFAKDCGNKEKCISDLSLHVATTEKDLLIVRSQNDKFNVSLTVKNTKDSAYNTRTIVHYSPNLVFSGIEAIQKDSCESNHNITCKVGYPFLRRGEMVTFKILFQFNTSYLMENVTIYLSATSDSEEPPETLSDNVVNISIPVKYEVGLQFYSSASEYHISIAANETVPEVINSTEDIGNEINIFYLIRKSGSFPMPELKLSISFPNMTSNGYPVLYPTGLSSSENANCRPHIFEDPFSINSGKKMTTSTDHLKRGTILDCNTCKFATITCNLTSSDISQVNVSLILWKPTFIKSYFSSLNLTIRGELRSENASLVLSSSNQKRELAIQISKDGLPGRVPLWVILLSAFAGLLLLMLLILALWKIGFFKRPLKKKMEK
# UniProt Q14677: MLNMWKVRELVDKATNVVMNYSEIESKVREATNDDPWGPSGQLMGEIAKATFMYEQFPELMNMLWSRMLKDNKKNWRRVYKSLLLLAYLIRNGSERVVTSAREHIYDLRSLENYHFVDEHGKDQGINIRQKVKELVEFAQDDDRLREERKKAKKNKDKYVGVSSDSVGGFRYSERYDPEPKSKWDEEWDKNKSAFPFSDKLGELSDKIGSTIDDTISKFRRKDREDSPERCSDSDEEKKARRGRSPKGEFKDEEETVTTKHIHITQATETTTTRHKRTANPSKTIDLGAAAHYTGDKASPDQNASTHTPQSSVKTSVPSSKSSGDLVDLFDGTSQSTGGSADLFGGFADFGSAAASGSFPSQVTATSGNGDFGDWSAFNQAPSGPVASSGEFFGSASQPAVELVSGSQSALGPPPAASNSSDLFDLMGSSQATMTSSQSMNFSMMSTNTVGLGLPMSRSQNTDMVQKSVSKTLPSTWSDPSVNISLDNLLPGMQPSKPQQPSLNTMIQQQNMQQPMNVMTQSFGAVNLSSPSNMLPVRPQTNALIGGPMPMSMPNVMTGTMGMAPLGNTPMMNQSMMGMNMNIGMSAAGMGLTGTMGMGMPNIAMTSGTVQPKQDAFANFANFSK
# UniProt Q9UJY4: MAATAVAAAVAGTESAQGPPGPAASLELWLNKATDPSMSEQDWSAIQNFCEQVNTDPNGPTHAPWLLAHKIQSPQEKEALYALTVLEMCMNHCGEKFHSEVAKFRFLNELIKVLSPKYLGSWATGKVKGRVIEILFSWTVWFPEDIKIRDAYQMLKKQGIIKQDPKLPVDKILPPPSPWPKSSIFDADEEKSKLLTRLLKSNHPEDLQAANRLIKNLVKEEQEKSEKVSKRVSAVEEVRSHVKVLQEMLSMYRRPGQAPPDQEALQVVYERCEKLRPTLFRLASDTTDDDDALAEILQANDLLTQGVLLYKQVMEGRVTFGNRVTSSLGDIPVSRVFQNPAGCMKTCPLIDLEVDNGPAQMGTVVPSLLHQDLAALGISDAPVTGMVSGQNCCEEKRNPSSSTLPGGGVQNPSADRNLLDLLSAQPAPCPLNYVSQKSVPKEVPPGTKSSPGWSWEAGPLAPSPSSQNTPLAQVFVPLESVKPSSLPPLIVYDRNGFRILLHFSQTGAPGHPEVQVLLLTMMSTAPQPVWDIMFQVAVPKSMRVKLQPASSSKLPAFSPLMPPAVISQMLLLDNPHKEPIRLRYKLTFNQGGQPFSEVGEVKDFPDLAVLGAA
# UniProt Q9H1H9: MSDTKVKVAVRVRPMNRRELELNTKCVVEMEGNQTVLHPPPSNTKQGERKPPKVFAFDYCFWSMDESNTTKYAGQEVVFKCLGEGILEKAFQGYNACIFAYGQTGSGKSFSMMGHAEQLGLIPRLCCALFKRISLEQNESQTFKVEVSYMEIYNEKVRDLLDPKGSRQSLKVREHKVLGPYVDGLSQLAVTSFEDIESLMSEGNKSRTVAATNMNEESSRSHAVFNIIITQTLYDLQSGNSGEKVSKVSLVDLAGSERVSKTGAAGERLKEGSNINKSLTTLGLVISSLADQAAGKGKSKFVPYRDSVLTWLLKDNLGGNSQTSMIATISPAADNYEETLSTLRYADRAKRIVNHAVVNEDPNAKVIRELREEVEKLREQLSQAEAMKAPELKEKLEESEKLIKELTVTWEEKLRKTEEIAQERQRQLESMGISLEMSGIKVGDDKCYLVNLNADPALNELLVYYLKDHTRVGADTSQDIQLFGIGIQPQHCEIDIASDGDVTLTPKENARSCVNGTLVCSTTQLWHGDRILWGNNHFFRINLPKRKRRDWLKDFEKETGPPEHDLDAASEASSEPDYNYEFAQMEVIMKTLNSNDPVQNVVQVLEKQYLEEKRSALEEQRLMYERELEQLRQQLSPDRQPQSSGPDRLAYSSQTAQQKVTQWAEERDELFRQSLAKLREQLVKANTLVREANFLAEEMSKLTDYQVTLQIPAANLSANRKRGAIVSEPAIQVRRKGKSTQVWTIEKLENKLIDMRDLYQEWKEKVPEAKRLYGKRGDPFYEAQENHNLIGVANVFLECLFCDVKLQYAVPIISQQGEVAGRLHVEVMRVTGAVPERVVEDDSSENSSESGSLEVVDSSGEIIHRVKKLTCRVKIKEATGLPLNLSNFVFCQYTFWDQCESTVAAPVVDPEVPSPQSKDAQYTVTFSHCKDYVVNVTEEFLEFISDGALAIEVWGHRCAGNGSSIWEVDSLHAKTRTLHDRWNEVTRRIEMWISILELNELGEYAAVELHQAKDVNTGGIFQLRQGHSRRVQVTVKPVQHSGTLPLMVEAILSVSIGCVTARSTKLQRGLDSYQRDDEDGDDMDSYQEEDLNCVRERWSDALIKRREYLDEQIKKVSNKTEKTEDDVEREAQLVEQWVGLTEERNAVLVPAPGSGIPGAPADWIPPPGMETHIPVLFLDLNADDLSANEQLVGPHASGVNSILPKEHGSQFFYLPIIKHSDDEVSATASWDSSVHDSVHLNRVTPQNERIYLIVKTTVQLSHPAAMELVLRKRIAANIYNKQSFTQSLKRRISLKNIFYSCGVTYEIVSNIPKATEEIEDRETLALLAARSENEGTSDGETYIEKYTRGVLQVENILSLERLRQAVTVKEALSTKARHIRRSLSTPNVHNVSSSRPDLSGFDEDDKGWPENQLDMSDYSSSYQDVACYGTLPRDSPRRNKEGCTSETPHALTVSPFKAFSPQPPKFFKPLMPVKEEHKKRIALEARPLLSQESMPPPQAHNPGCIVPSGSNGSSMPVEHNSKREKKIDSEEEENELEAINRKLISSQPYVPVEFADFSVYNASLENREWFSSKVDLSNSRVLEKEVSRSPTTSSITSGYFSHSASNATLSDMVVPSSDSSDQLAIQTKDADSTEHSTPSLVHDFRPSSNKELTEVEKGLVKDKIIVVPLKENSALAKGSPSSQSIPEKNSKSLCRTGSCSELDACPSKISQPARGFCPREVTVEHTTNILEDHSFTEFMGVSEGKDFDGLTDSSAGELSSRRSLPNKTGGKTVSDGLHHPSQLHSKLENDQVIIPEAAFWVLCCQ
# UniProt Q9Y6I3: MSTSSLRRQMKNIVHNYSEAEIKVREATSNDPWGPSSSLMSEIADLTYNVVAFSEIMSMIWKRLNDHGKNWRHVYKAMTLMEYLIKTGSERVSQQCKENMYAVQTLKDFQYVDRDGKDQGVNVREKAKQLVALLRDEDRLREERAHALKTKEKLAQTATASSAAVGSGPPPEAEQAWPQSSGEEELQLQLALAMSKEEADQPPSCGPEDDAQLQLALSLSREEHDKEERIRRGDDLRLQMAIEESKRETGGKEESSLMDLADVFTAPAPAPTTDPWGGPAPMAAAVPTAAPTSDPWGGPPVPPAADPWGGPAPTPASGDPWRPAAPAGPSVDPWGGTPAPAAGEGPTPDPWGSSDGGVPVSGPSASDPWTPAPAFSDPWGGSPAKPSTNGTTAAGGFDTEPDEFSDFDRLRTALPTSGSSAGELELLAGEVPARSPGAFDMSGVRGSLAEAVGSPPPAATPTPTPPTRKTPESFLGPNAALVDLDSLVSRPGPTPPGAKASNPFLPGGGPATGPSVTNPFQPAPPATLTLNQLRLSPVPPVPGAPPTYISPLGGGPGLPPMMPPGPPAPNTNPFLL
# These are yes or no findings as the source states them, for the method shown. In cells and extracts the contact can be indirect. Here binding means that the protein was enriched with, or labelled near, the bait; the list need not be complete. For part of these data: A no says only that the protein was not detected with the bait. For part of these data: Where a sequence is shown, tags or fusion partners need not be part of it.
# B1: AP-1β1 (protein, UniProt Q10567 1-949)
# chain: MTDSKYFTTTKKGEIFELKAELNSDKKEKKKEAVKKVIASMTVGKDVSALFPDVVNCMQTDNLELKKLVYLYLMNYAKSQPDMAIMAVNTFVKDCEDPNPLIRALAVRTMGCIRVDKITEYLCEPLRKCLKDEDPYVRKTAAVCVAKLHDINAQLVEDQGFLDTLKDLISDSNPMVVANAVAALSEIAESHPSSNLLDLNPQSINKLLTALNECTEWGQIFILDCLANYMPKDDREAQSICERVTPRLSHANSAVVLSAVKVLMKFMEMLSKDLDYYGTLLKKLAPPLVTLLSAEPELQYVALRNINLIVQKRPEILKHEMKVFFVKYNDPIYVKLEKLDIMIRLASQANIAQVLAELKEYATEVDVDFVRKAVRAIGRCAIKVEQSAERCVSTLLDLIQTKVNYVVQEAIVVIKDIFRKYPNKYESVIATLCENLDSLDEPEARAAMIWIVGEYAERIDNADELLESFLEGFHDESTQVQLQLLTAIVKLFLKKPTETQELVQQVLSLATQDSDNPDLRDRGYIYWRLLSTDPVAAKEVVLAEKPLISEETDLIEPTLLDELICYIGTLASVYHKPPSAFVEGGRGVVHKSLPPRTASSESAESPETAPTGAPPGEQPDVIPAQGDLLGDLLNLDLGPPVSGPPLATSSVQMGAVDLLGGGLDSLMGDEPEGIGGTNFVAPPTAAVPANLGAPIGSGLSDLFDLTSGVGTLSGSYVAPKAVWLPAMKAKGLEISGTFTRQVGSISMDLQLTNKALQVMTDFAIQFNRNSFGLAPAAPLQVHAPLSPNQTVEISLPLSTVGSVMKMEPLNNLQVAVKNNIDVFYFSTLYPLHILFVEDGKMDRQMFLATWKDIPNENEAQFQIRDCPLNAEAASSKLQSSNIFTVAKRNVEGQDMLYQSLKLTNGIWVLAELRIQPGNPSCTDLELSLKCRAPEVSQHVYQAYETILKN
# B2: GGA3 (protein, UniProt Q9NZ52 1-723)
# chain: MAEAEGESLESWLNKATNPSNRQEDWEYIIGFCDQINKELEGPQIAVRLLAHKIQSPQEWEALQALTVLEACMKNCGRRFHNEVGKFRFLNELIKVVSPKYLGDRVSEKVKTKVIELLYSWTMALPEEAKIKDAYHMLKRQGIVQSDPPIPVDRTLIPSPPPRPKNPVFDDEEKSKLLAKLLKSKNPDDLQEANKLIKSMVKEDEARIQKVTKRLHTLEEVNNNVRLLSEMLLHYSQEDSSDGDRELMKELFDQCENKRRTLFKLASETEDNDNSLGDILQASDNLSRVINSYKTIIEGQVINGEVATLTLPDSEGNSQCSNQGTLIDLAELDTTNSLSSVLAPAPTPPSSGIPILPPPPQASGPPRSRSSSQAEATLGPSSTSNALSWLDEELLCLGLADPAPNVPPKESAGNSQWHLLQREQSDLDFFSPRPGTAACGASDAPLLQPSAPSSSSSQAPLPPPFPAPVVPASVPAPSAGSSLFSTGVAPALAPKVEPAVPGHHGLALGNSALHHLDALDQLLEEAKVTSGLVKPTTSPLIPTTTPARPLLPFSTGPGSPLFQPLSFQSQGSPPKGPELSLASIHVPLESIKPSSALPVTAYDKNGFRILFHFAKECPPGRPDVLVVVVSMLNTAPLPVKSIVLQAAVPKSMKVKLQPPSGTELSPFSPIQPPAAITQVMLLANPLKEKVRLRYKLTFALGEQLSTEVGEVDQFPPVEQWGNL
# B3: sodium-bicarbonate co-transporter NBCn1 (protein, UniProt Q9Y6M7 1-1214)
# chain: MERFRLEKKLPGPDEEAVVDLGKTSSTVNTKFEKEELESHRAVYIGVHVPFSKESRRRHRHRGHKHHHRRRKDKESDKEDGRESPSYDTPSQRVQFILGTEDDDEEHIPHDLFTEMDELCYRDGEEYEWKETARWLKFEEDVEDGGDRWSKPYVATLSLHSLFELRSCILNGTVMLDMRASTLDEIADMVLDNMIASGQLDESIRENVREALLKRHHHQNEKRFTSRIPLVRSFADIGKKHSDPHLLERNGEGLSASRHSLRTGLSASNLSLRGESPLSLLLGHLLPSSRAGTPAGSRCTTPVPTPQNSPPSSPSISRLTSRSSQESQRQAPELLVSPASDDIPTVVIHPPEEDLEAALKGEEQKNEENVDLTPGILASPQSAPGNLDNSKSGEIKGNGSGGSRENSTVDFSKVDMNFMRKIPTGAEASNVLVGEVDFLERPIIAFVRLAPAVLLTGLTEVPVPTRFLFLLLGPAGKAPQYHEIGRSIATLMTDEIFHDVAYKAKDRNDLLSGIDEFLDQVTVLPPGEWDPSIRIEPPKSVPSQEKRKIPVFHNGSTPTLGETPKEAAHHAGPELQRTGRLFGGLILDIKRKAPFFLSDFKDALSLQCLASILFLYCACMSPVITFGGLLGEATEGRISAIESLFGASLTGIAYSLFAGQPLTILGSTGPVLVFEKILYKFCRDYQLSYLSLRTSIGLWTSFLCIVLVATDASSLVCYITRFTEEAFAALICIIFIYEALEKLFDLGETYAFNMHNNLDKLTSYSCVCTEPPNPSNETLAQWKKDNITAHNISWRNLTVSECKKLRGVFLGSACGHHGPYIPDVLFWCVILFFTTFFLSSFLKQFKTKRYFPTKVRSTISDFAVFLTIVIMVTIDYLVGVPSPKLHVPEKFEPTHPERGWIISPLGDNPWWTLLIAAIPALLCTILIFMDQQITAVIINRKEHKLKKGAGYHLDLLMVGVMLGVCSVMGLPWFVAATVLSISHVNSLKVESECSAPGEQPKFLGIREQRVTGLMIFILMGLSVFMTSVLKFIPMPVLYGVFLYMGVSSLKGIQLFDRIKLFGMPAKHQPDLIYLRYVPLWKVHIFTVIQLTCLVLLWVIKVSAAAVVFPMMVLALVFVRKLMDLCFTKRELSWLDDLMPESKKKKEDDKKKKEKEEAERMLQDDDDTVHLPFEGGSLLQIPVKALKYSPDKPVSVKISFEDEPRKKYVDAETSL
# B4: epsin-2 (protein, UniProt O95208 1-641)
# chain: MTTSSIRRQMKNIVNNYSEAEIKVREATSNDPWGPSSSLMTEIADLTYNVVAFSEIMSMVWKRLNDHGKNWRHVYKALTLLDYLIKTGSERVAQQCRENIFAIQTLKDFQYIDRDGKDQGINVREKSKQLVALLKDEERLKAERAQALKTKERMAQVATGMGSNQITFGRGSSQPNLSTSHSEQEYGKAGGSPASYHGSPEASLCPQHRTGAPLGQSEELQPLSQRHPFLPHLGLASRPNGDWSQPCLTCDRAARATSPRVSSELEQARPQTSGEEELQLQLALAMSREVAEQEERLRRGDDLRLQMALEESRRDTVKIPKKKEHGSLPQQTTLLDLMDALPSSGPAAQKAEPWGPSASTNQTNPWGGPAAPASTSDPWPSFGTKPAASIDPWGVPTGATVQSVPKNSDPWAASQQPASSAGKRASDAWGAVSTTKPVSVSGSFELFSNLNGTIKDDFSEFDNLRTSKKTAESVTSLPSQNNGTTSPDPFESQPLTVASSKPSSARKTPESFLGPNAALVNLDSLVTRPAPPAQSLNPFLAPGAPATSAPVNPFQVNQPQPLTLNQLRGSPVLGTSTSFGPGPGVESMAVASMTSAAPQPALGATGSSLTPLGPAMMNMVGSVGIPPSAAQATGTTNPFLL
# B5: GGA1 (protein, UniProt Q9UJY5 1-639)
# chain: MEPAMEPETLEARINRATNPLNKELDWASINGFCEQLNEDFEGPPLATRLLAHKIQSPQEWEAIQALTVLETCMKSCGKRFHDEVGKFRFLNELIKVVSPKYLGSRTSEKVKNKILELLYSWTVGLPEEVKIAEAYQMLKKQGIVKSDPKLPDDTTFPLPPPRPKNVIFEDEEKSKMLARLLKSSHPEDLRAANKLIKEMVQEDQKRMEKISKRVNAIEEVNNNVKLLTEMVMSHSQGGAAAGSSEDLMKELYQRCERMRPTLFRLASDTEDNDEALAEILQANDNLTQVINLYKQLVRGEEVNGDATAGSIPGSTSALLDLSGLDLPPAGTTYPAMPTRPGEQASPEQPSASVSLLDDELMSLGLSDPTPPSGPSLDGTGWNSFQSSDATEPPAPALAQAPSMESRPPAQTSLPASSGLDDLDLLGKTLLQQSLPPESQQVRWEKQQPTPRLTLRDLQNKSSSCSSPSSSATSLLHTVSPEPPRPPQQPVPTELSLASITVPLESIKPSNILPVTVYDQHGFRILFHFARDPLPGRSDVLVVVVSMLSTAPQPIRNIVFQSAVPKVMKVKLQPPSGTELPAFNPIVHPSAITQVLLLANPQKEKVRLRYKLTFTMGDQTYNEMGDVDQFPPPETWGSL
# What was measured:
# [1] = target: AP2µ^EN–TurboID–V5 (human (endogenous in HeLa)) (UniProt Q96CW1); experiment: proximity labelling; TurboID knocked in at the µ subunits of AP-1 to AP-4 in living HeLa cells, 50 µM biotin for 24 h; RIPA lysate (30 min, 24 G needle), streptavidin magnetic beads, label-free quantitative LC-MS; relative intensities compared between the AP datasets (log2 fold change >1 or <-1, P<0.05), control biotin-treated WT HeLa; four replicates
# [2] = target: T1, AP1µA–TurboID–V5 (transiently overexpressed) (UniProt Q9BXS5); experiment: proximity labelling; TurboID fused to AP1µA in living HeLa cells (knock-in or transient overexpression), 50 µM biotin for 24 h; RIPA lysate, streptavidin magnetic beads, on-bead trypsin digest, label-free quantitative LC-MS; enriched: log2 fold change >1 and P<0.05 against cytosolic TurboID–V5 and biotin-treated WT HeLa; three replicates
# T1 sequence: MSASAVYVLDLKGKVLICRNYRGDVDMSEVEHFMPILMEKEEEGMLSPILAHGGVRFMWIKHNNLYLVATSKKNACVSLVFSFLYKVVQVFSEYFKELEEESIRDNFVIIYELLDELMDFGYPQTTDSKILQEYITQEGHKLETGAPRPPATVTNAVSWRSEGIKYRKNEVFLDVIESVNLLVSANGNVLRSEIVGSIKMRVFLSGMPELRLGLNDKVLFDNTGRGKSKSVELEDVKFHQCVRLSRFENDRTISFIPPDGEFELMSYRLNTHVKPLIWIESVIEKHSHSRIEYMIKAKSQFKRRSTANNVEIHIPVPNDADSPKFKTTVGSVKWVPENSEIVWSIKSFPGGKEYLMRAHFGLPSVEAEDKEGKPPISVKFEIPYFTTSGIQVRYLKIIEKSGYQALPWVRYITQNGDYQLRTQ
# [3] = target: T2, AP1µA^EN–TurboID–V5 (human (endogenous in HeLa)) (UniProt Q9BXS5); experiment: as above
# T2 sequence: T1 sequence
# [4] = target: T3, V5–TurboID–CLCa^EN (human (endogenous in HeLa)) (UniProt P09496); experiment: proximity labelling; V5–TurboID–CLCa knock-in in living HeLa cells, 50 µM biotin for 24 h; RIPA lysate, streptavidin magnetic beads, label-free quantitative LC-MS; compared with the AP1µA and AP2µ TurboID datasets and biotin-treated WT HeLa; four replicates
# T3 sequence: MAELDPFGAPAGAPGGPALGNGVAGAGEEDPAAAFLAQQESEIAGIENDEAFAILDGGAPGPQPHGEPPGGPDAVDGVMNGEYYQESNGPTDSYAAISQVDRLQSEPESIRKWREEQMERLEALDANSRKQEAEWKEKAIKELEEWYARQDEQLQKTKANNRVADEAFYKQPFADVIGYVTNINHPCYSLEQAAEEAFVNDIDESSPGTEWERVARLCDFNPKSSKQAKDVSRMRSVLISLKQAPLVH
Molecule,binding [1],binding [2],binding [3],binding [4]
ITGA1 (from UniProt P56199 29-1179),binds,–,–,–
AP-1σ (human (endogenous in HeLa)),–,no binding,binds,–
AP-1γ (human (endogenous in HeLa)),–,binds,binds,–
synaptojanin-1 (from UniProt O43426 1-1573),binds,–,–,binds
HEAT repeat containing 5B (from UniProt Q9P2D3 1-2071),–,–,–,binds
ATP7A (from UniProt Q04656 1-1500),–,–,binds,–
EpsinR (from UniProt Q14677 1-625),–,–,binds,–
GGA2 (from UniProt Q9UJY4 1-613),–,binds,binds,–
kinesin-like protein KIF13A (from UniProt Q9H1H9 1-1805),–,binds,binds,–
epsin-1 (from UniProt Q9Y6I3 1-576),–,–,–,binds
B1,–,binds,binds,–
B2,–,–,binds,–
B3,–,–,binds,–
B4,binds,–,–,–
B5,–,–,binds,–
